This is one part of the list. Most entries show no effect beyond the scatter of the controls.
Each target was assayed with Cc1nc(Nc2ncc(C(=O)Nc3c(C)cccc3Cl)s2)cc(N2CCN(CCO)CC2)n1 [dasatinib] (assay: log2 fold change of tryptic peptide abundance, ligand vs vehicle (limited proteolysis) (log2 ratio); higher = more trypsin-susceptible (destabilized)). Settings: ligand concentration: 5 uM; sample: K562 cleared lysate.

Chains of the proteins cited; added tags and fusions are not shown. Lines headed by an entry give the natural chain unless they say otherwise; changes in a name come on top.
UniProt Q92901: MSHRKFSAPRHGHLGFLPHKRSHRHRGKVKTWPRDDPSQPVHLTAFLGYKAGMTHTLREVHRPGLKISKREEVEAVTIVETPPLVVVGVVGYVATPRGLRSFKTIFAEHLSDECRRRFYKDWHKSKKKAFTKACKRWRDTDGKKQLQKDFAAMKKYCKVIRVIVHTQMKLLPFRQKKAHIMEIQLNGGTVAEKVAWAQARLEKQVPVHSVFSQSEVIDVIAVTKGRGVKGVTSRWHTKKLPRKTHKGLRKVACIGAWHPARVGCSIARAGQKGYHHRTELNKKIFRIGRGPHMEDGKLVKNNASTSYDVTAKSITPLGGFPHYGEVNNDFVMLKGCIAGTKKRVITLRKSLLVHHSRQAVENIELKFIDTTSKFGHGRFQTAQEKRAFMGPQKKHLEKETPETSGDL
UniProt Q96DF8: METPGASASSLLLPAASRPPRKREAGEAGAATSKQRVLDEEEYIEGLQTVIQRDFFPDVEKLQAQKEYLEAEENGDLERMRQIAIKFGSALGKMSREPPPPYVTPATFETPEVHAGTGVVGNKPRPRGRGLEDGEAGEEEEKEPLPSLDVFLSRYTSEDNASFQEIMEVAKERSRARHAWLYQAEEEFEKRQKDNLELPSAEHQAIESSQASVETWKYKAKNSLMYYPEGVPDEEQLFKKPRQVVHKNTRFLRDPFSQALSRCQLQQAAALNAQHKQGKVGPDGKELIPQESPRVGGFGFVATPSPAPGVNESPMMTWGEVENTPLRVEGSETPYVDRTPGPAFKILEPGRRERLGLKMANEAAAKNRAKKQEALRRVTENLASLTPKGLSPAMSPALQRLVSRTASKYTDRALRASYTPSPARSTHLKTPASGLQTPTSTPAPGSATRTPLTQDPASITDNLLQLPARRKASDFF
UniProt Q92772: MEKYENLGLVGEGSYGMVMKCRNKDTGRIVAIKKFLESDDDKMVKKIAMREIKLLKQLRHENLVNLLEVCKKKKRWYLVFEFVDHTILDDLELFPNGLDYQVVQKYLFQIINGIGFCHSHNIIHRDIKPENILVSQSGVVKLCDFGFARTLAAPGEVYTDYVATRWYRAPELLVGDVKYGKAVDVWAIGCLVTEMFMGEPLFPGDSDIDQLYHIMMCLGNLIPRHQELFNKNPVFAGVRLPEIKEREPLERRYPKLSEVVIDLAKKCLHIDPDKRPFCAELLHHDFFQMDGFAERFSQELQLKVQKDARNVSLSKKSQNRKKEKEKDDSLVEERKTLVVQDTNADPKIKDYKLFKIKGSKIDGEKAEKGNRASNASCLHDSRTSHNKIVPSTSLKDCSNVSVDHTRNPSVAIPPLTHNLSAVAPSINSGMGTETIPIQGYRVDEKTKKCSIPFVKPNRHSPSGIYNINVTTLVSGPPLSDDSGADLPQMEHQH
UniProt Q96AQ6: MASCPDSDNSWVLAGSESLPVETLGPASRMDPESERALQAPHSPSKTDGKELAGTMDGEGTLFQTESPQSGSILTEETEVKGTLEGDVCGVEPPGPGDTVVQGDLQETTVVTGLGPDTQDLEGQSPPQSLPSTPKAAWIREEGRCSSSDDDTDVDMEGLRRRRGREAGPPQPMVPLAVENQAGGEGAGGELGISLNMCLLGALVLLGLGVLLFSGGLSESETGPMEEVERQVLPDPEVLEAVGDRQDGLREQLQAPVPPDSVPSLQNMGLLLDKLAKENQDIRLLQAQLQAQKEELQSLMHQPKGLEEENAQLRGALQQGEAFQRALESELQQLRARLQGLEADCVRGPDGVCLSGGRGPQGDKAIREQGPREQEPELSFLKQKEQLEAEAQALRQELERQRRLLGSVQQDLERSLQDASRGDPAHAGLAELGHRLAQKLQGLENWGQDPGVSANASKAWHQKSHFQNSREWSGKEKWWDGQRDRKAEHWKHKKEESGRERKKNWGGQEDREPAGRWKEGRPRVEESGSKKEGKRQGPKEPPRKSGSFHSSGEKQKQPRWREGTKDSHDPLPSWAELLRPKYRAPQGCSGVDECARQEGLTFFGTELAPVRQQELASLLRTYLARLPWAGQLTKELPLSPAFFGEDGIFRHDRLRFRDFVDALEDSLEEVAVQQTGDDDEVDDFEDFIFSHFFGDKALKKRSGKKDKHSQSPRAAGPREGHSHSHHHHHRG
UniProt Q96EN8: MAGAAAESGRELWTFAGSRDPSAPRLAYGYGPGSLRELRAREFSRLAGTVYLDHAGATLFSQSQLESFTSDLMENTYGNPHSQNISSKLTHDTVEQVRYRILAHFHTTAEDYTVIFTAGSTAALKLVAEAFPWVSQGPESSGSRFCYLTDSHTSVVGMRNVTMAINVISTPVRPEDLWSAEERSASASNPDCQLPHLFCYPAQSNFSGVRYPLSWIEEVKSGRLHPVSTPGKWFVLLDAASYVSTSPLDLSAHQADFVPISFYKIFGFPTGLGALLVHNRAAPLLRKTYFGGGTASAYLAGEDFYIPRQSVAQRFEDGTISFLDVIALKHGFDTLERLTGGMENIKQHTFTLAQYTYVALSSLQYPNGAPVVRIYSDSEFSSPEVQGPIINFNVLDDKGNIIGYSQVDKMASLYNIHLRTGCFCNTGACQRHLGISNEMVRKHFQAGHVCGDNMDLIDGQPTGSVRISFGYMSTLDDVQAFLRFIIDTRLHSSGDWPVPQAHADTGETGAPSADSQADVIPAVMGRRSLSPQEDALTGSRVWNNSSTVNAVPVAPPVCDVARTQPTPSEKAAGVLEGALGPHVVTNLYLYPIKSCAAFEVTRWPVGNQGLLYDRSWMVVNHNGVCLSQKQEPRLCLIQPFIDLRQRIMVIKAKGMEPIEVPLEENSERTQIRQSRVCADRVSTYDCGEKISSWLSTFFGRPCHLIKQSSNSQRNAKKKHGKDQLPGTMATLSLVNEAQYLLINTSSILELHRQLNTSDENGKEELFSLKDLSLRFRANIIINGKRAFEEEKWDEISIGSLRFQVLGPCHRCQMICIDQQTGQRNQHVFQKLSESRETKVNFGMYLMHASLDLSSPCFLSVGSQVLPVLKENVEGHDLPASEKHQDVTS
UniProt Q96C86: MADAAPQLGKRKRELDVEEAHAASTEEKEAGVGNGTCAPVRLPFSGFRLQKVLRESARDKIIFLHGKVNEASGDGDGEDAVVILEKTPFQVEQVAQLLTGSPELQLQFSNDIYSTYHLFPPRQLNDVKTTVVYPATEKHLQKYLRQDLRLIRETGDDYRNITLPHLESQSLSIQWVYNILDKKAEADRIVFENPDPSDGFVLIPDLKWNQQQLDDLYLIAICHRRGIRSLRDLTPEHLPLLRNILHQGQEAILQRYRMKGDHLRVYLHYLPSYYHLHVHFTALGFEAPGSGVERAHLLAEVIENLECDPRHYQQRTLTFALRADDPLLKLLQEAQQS
UniProt Q96A33: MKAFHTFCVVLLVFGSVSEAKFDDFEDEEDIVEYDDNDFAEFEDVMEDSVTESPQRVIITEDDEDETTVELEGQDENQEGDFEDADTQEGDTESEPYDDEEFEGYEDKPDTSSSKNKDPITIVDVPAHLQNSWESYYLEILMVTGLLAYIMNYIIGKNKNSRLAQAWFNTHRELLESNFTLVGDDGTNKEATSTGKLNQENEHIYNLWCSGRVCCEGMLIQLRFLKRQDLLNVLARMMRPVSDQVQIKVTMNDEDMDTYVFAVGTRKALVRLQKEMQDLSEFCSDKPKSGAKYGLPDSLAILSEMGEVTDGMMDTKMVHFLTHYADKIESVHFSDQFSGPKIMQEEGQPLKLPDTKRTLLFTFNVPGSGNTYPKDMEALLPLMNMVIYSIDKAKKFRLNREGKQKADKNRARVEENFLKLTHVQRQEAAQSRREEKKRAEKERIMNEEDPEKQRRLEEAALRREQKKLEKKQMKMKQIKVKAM
UniProt Q92828: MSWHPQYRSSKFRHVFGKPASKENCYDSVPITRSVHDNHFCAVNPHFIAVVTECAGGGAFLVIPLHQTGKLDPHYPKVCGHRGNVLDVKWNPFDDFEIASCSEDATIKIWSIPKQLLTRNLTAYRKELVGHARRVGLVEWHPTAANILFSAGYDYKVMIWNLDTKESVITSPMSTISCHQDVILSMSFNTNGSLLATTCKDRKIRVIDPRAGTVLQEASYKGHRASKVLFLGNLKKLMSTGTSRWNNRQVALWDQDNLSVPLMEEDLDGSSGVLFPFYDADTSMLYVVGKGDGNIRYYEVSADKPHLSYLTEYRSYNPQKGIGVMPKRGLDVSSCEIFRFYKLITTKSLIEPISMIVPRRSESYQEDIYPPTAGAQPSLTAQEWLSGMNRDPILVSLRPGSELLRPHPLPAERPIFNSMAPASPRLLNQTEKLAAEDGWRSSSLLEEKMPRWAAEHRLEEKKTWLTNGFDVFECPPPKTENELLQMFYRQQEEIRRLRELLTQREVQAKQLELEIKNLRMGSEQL
UniProt Q96C90: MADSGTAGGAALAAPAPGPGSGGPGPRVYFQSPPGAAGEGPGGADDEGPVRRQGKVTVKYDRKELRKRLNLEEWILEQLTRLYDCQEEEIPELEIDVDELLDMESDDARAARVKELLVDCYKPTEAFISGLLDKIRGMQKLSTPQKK
UniProt Q96CK0: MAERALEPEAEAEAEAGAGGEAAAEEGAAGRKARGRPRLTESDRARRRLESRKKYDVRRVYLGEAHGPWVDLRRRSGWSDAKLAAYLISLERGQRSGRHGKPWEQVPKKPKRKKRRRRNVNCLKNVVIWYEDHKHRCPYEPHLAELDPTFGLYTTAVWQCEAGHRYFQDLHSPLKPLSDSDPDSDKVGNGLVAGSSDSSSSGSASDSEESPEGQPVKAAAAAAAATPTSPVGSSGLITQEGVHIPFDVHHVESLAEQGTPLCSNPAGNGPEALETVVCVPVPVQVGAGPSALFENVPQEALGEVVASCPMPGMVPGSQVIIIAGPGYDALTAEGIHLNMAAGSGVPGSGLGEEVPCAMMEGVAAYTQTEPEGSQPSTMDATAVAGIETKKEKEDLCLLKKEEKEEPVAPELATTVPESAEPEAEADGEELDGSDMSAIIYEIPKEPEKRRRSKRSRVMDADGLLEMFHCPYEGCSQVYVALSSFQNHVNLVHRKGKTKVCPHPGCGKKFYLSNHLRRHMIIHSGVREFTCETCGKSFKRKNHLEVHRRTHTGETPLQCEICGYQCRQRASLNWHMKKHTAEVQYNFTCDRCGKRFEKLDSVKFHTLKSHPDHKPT
UniProt Q96EZ8, whole entry: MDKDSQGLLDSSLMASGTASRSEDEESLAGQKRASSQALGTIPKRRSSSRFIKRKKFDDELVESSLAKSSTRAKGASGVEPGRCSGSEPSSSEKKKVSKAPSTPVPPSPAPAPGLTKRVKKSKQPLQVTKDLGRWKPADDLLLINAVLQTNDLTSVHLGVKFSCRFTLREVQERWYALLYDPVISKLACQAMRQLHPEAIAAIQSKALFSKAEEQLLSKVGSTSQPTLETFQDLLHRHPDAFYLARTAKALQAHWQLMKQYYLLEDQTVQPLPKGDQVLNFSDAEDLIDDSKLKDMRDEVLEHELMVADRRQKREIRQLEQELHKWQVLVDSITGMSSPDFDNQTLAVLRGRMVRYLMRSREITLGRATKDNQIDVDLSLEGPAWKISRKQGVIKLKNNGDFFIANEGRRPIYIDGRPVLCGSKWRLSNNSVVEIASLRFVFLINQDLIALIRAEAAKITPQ
UniProt Q96BD8: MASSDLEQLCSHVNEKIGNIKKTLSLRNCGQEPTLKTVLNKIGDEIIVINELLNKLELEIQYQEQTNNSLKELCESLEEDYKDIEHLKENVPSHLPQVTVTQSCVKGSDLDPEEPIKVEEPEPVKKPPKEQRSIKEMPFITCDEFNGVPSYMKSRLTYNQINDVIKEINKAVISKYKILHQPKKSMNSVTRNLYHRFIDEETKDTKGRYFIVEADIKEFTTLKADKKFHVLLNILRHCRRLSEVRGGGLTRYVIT
UniProt Q96EK4, whole entry: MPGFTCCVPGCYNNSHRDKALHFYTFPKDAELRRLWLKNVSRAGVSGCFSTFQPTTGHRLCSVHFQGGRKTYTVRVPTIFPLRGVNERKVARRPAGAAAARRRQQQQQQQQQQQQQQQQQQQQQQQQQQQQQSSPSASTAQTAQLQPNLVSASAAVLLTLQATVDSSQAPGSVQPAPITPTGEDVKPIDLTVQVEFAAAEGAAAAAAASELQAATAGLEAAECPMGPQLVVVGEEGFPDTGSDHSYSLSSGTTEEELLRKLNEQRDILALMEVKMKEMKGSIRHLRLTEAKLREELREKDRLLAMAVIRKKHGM
UniProt Q96C28: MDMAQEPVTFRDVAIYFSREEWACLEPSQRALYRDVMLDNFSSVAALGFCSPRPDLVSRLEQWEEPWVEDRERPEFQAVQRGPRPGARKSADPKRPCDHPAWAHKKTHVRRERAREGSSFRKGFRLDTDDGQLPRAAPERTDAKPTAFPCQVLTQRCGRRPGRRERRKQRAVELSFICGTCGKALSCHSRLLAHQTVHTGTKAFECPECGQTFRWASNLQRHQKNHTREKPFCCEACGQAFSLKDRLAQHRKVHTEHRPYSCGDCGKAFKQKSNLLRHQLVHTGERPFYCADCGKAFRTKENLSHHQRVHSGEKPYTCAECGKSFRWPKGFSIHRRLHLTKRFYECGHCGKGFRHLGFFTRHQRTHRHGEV

Question: Which log2 fold change does the source give for “RPL3L (peptide sequence: KVACIGAWHPAR, peptide start residue: 250) (UniProt Q92901)” here?
Answer: -0.0463

Question: How did the log2 fold change turn out when “UniProt Q92831 (peptide sequence: GKPVVEGSLEK, peptide start residue: 202)” was run?
Answer: 0.214

Question: Which log2 fold change does the source give for “UniProt Q96DF8 (peptide sequence: ASYTPSPAR, peptide start residue: 416)” here?
Answer: -0.251

Question: Which log2 fold change does the source give for “ITFG2 (peptide sequence: DVVLHQTSGR, peptide start residue: 239) (UniProt Q969R8)” here?
Answer: 0.127

Question: How did the log2 fold change turn out when “AKAP1 (peptide sequence: VLEEALLSR, peptide start residue: 214) (UniProt Q92667)” was run?
Answer: 0.211

Question: Which log2 fold change does the source give for “KIFAP3 (peptide sequence: WHNSQWLEMVESR, peptide start residue: 678) (UniProt Q92845)” here?
Answer: 0.686

Question: With “UniProt Q96B45 (peptide sequence: NMVLQEDAILHSEDSLR, peptide start residue: 55)” as the target, how does the log2 fold change read?
Answer: 0.257

Question: How did the log2 fold change turn out when “CDKL2 (peptide sequence: KIAMREIK, peptide start residue: 46) (UniProt Q92772)” was run?
Answer: 0.389

Question: For “UniProt Q92731 (peptide sequence: SLEHTLPVNR, peptide start residue: 112)”, which log2 fold change is on record?
Answer: 0.0732

Question: How did the log2 fold change turn out when “PBXIP1 (peptide sequence: MDPESER, peptide start residue: 30) (UniProt Q96AQ6)” was run?
Answer: -0.0886

Question: With “TTC17 (peptide sequence: ILELPYSIHAFQHLR, peptide start residue: 163) (UniProt Q96AE7)” as the target, how does the log2 fold change read?
Answer: -0.377

Question: “MOCOS (peptide sequence: HLGISNEMVR, peptide start residue: 432) (UniProt Q96EN8)” was tested. Which log2 fold change did it give?
Answer: 0.151

Question: How did the log2 fold change turn out when “ISOC2 (peptide sequence: GLQVHVVVDACSSR, peptide start residue: 126) (UniProt Q96AB3)” was run?
Answer: -0.161

Question: For “UniProt Q96DM3 (peptide sequence: SGGATGVVVKGPDDRNPISFR, peptide start residue: 40)”, which log2 fold change is on record?
Answer: 0.313

Question: “DCPS (peptide sequence: DKIIFLHGK, peptide start residue: 59) (UniProt Q96C86)” was tested. Which log2 fold change did it give?
Answer: 0.188

Question: How did the log2 fold change turn out when “CCDC47 (peptide sequence: IMNEEDPEKQR, peptide start residue: 444) (UniProt Q96A33)” was run?
Answer: 0.481

Question: How did the log2 fold change turn out when “NUDT16 (peptide sequence: YAILMQMR, peptide start residue: 43) (UniProt Q96DE0)” was run?
Answer: -0.141

Question: For “CORO2A (peptide sequence: QLELEIK, peptide start residue: 510) (UniProt Q92828)”, which log2 fold change is on record?
Answer: 0.133

Question: “SNAPC3 (peptide sequence: AFHVGAFGELWR, peptide start residue: 41) (UniProt Q92966)” was tested. Which log2 fold change did it give?
Answer: -0.152

Question: For “GCC1 (peptide sequence: SPLDSHGEESSLDVNVLKDK, peptide start residue: 416) (UniProt Q96CN9)”, which log2 fold change is on record?
Answer: -0.5

Question: For “UniProt Q96EF9 (peptide sequence: FKGDLAYR, peptide start residue: 59)”, which log2 fold change is on record?
Answer: -0.12

Question: For “UniProt Q96EM0 (peptide sequence: GLLELNQMR, peptide start residue: 288)”, which log2 fold change is on record?
Answer: -0.181

Question: Which log2 fold change does the source give for “TUBGCP3 (peptide sequence: EADAALFSELHR, peptide start residue: 68) (UniProt Q96CW5)” here?
Answer: -0.354

Question: How did the log2 fold change turn out when “PPP1R14B (peptide sequence: VYFQSPPGAAGEGPGGADDEGPVRR, peptide start residue: 28) (UniProt Q96C90)” was run?
Answer: -0.0568

Question: “UniProt Q96CK0 (peptide sequence: LAAYLISLER, peptide start residue: 83)” was tested. Which log2 fold change did it give?
Answer: -0.524

Question: Which log2 fold change does the source give for “ZUP1 (peptide sequence: EKQSSLTEIK, peptide start residue: 134) (UniProt Q96AP4)” here?
Answer: 0.27

Question: “UniProt Q92619 (peptide sequence: SAPDGVPFIVK, peptide start residue: 769)” was tested. Which log2 fold change did it give?
Answer: 0.35

Question: With “MCRS1 (peptide sequence: SKQPLQVTK, peptide start residue: 122) (UniProt Q96EZ8)” as the target, how does the log2 fold change read?
Answer: -0.26

Question: Which log2 fold change does the source give for “UniProt Q96BD8 (peptide sequence: EFTTLKADK, peptide start residue: 218)” here?
Answer: 0.525

Question: Which log2 fold change does the source give for “THAP11 (peptide sequence: LLAMAVIR, peptide start residue: 302) (UniProt Q96EK4)” here?
Answer: -0.144

Question: “UniProt Q96C28 (peptide sequence: TDAKPTAFPCQVLTQR, peptide start residue: 141)” was tested. Which log2 fold change did it give?
Answer: 0.204

Question: How did the log2 fold change turn out when “EVI5L (peptide sequence: VVELETQDHIHR, peptide start residue: 583) (UniProt Q96CN4)” was run?
Answer: -1.46

Question: How did the log2 fold change turn out when “TBRG4 (peptide sequence: DVLLDVAYAYGK, peptide start residue: 293) (UniProt Q969Z0)” was run?
Answer: 0.19

Question: With “ENTR1 (peptide sequence: NLGLSKEDPASR, peptide start residue: 119) (UniProt Q96C92)” as the target, how does the log2 fold change read?
Answer: -0.42

Question: How did the log2 fold change turn out when “RPL36AL (peptide sequence: GKDSLYAQGR, peptide start residue: 29) (UniProt Q969Q0)” was run?
Answer: 0.0205

Question: Which log2 fold change does the source give for “INPP5D (peptide sequence: HRPEEGPPGPLGR, peptide start residue: 1173) (UniProt Q92835)” here?
Answer: -0.399

Question: For “CASP10 (peptide sequence: EIMSHFTALQCPR, peptide start residue: 376) (UniProt Q92851)”, which log2 fold change is on record?
Answer: -0.543

Question: For “FAM136A (peptide sequence: CVDDHMHLIPTMTK, peptide start residue: 114) (UniProt Q96C01)”, which log2 fold change is on record?
Answer: 0.176

From the supplement of paper PMC12819154, “High-throughput peptide-centric local stability assay extends protein–ligand identification to membrane proteins, tissues and bacteria” (Nature Structural & Molecular Biology, 2025)
